Drawing on the supplement of paper PMC12578635, this text covers host macrophage viability for 30 compounds.

SMILES strings stand for the structures. ± gives the standard deviation of the averaged measurements. The list shows a part of the results. Most values come without repeats; read them as rough.

The assay deals with RAW 264.7 macrophages infected with S. aureus JE2-lux. Nature of the assay: host macrophage viability (CellTiter-Fluor) relative to DMSO vehicle; higher = more viable host cells. The conditions noted are these: 10 µM; treatment time 4 h; gentamicin 50 µg/ml.
`Cc1c(-c2ccccc2)n[nH]c1C(=O)Nc1ccc(Oc2cccnc2)cc1`: the host macrophage viability amounted to 76.4%.
The result for `Cc1nnc2ccc(C(=O)NCc3ccc(F)cc3)cn12` reads 121%; that for `N#CC1=C(N)OC2=C(C(=O)CCC2)C1c1ccc(-c2ccc(Br)cc2)o1` (stereo not given), 100%.
With `Cc1sc2nc(C)n3c(=O)n(Cn4nnc5ccccc54)nc3c2c1C`, the host macrophage viability amounted to 95.6%.
With `O=C(NNc1nc2c(F)cc(F)cc2s1)c1ccc(F)cc1`, the host macrophage viability was found to be 117 ± 13%.
The result for `CCC(Sc1nncn1C)C(=O)Nc1nnc(-c2ccc(OC)cc2OC)s1` (stereo not given) reads 116 ± 11%.
To `O=C(NC1CCN(Cc2cccc(F)c2)CC1)c1cnn(-c2ccc(F)cc2)c1` belongs 104%; to `Cc1nc(SCC(=O)NCc2ccco2)c2c3c(sc2n1)CCCC3`, 119 ± 18%; to `CC(c1ccccc1)n1cnc2c(cnc3nc4ccccc4n32)c1=O` (stereo not given), 139%.
For the compound `CCCCc1ccc(-n2c(C)c(C)n3c4c(=O)[nH]c(=O)n(C)c4nc23)cc1`, the host macrophage viability was found to be 105%.
For the compound `Cc1nc2c(C)cccn2c(=O)c1NC(=O)COc1ccc2ccccc2c1`, the host macrophage viability was 132%.
As to `Cc1ccc(NC(=O)CC2SC(=N)NC2=O)cc1` (stereo not given), the host macrophage viability amounted to 106%.
With `O=C(Nc1nnc(-c2ccncc2)o1)c1ccccc1I`, the host macrophage viability turned out to be 123%.
As to `COc1ccccc1Cn1cc(C(=O)c2ccccc2)c(=O)c2cc3c(cc21)OCO3`, the host macrophage viability is 117%.
On to `O=C(COc1ccc(Br)cc1)N/N=C/c1ccco1`, for which the host macrophage viability turned out to be 130%.
To `CCOc1ccc2cc(C#N)c(SCC(=O)Nc3c[nH]c(=O)[nH]c3=O)nc2c1` belongs 116%; to `COc1ccc(C(=O)N(Cc2cccnc2)c2nc3c(C)cc(Cl)cc3s2)cc1OC`, 94.4%.
To `O=c1[nH]cc(S(=O)(=O)N2CCCc3ccccc32)c(=O)[nH]1` belongs 109%.
In the case of `CCn1c(C)cc2cc(NC(=O)COc3ncnc4ccccc34)ccc21`, the host macrophage viability turned out to be 114%.
With `COc1cccc2s/c(=N/C(=S)NC(=O)c3ccc(C)cc3)n(C)c12`, the host macrophage viability worked out at 112 ± 4.4%.
The result for `O=C(NCc1cccs1)c1ccc(S(=O)(=O)c2ccccc2)nc1` reads 117%; that for `COc1ccc2cc(CCNC(=O)c3ccc(OC)c(OC)c3)c(=O)[nH]c2c1`, 130%; that for `CCOC(=O)c1c(NC(=O)CSc2nc(N)cc(=O)[nH]2)sc2c1CCC2`, 109%.
In the case of `CN(c1ccccc1)N1C(=O)/C(=C2/C(=O)Nc3ccc(Br)cc32)SC1=S`, the host macrophage viability turned out to be 105%.
In the case of `Clc1ccc(Cl)c2sc(N3CCCC3)nc12`, the host macrophage viability worked out at 109 ± 5.5%.
With `C=CCn1c(CSc2nc(N)cc(N)n2)n[nH]c1=S`, the host macrophage viability is 108%.
For `Cc1ccnc(SCc2cc(=O)c(OC(=O)c3ccc(S(=O)(=O)N4CCCC4)cc3)co2)n1`, the host macrophage viability was 118%.
As for `CCOc1cc2c(cc1OCC)C(C)N(C(=O)c1ccc3nc(C)[nH]c3c1)CC2` (stereo not given), the host macrophage viability is 136%.
Regarding `CCCCN(Cc1ccccc1)c1ncnc2[nH]cnc12`, the host macrophage viability was determined as 113%.
For the compound `Cc1cc2ccccc2n2c(=O)n(CC(C)NC(=O)c3ccnn3C)nc12` (stereo not given), the host macrophage viability is 117%.
